Reference: PubChem BioAssay AID2685 (National Center for Advancing Translational Sciences (NCATS), 2010)
The campaign covered roughly 320,000 compounds. About 2,100 (0.66%) were called active. Inconclusive means that the source gave no clear call. Such entries were picked first, then a sample of the others. Calls come from the whole dose curve; as a rule, active = well fitted inhibition curve with a large enough effect in the signal ratio, with a control signal flat (not every such curve was filed as active); inconclusive = small, poorly fitted or top-dose-only effect, or effect the other way, or a change in a side signal; inactive = flat fitted curve, though single readings scatter; the % refers to the signal ratio. Potencies beside an inconclusive call are fits to weak or partial responses and may not hold up.

assay: qHTS Assay for Lipid Storage Modulators in Drosophila S3 Cells; settings: BODIPY lipid droplet fluorescence, 18-24 h, cells fed with added oleic acid; lipid storage change, negative = inhibition: at 46.1 µM (top of the series) unless noted
In short: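 Drosophila S3 cells got compounds at several concentrations plus oleic acid (400 uM solution). Laser-scanning cytometry with 488 nm excitation read lipid droplets at 500-530 nm and cells at 575-640 nm. Percent activity was relative to 20 uM Triacsin C.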
% is set by controls: 0 for no effect and ±100 for the full control effect; potency is the fitted concentration of half-maximal effect.

| Structure (SMILES) | lipid storage change, negative = inhibition | Potency | outcome |
| --- | --- | --- | --- |
| CCCN1CCC(=O)N([C@H](CSc2ccc(OC)cc2)c2ccccc2)CC1 | inconclusive: 16.1% | – | – |
| CCN(C(=O)COC(=O)/C=C/c1cccc(Br)c1)C1CCS(=O)(=O)C1 (configuration not stated) | inconclusive: 21.5% | – | – |
| COc1cc(NC(=O)c2cc(=O)[nH]c3ccc(S(=O)(=O)N4CCOCC4)cc23)cc(OC)c1 | inconclusive: -0.69% | – | – |
| COc1ccc(S(=O)(=O)N2c3ccccc3OCC2C)cc1 (configuration not stated) | inconclusive: 13.3% | – | – |
| N/C(=N\OC(=O)/C=C/c1ccccc1)c1ccccn1 | inactive: 2.94% | – | – |
| CCCCn1nc(NC(=O)CC)c2cc3cc(OC)ccc3nc21 | inconclusive: -75.5% | – | – |
| CCSCCOC(=O)C1=C(C)NC(=O)NC1c1ccc2c(c1)OCO2 (configuration not stated) | inconclusive: -0.0924% | – | – |
| Cn1nccc1C(=O)N1CCN(c2cccc(Cl)c2)CC1 | – | inconclusive: 29.1 µM [falling, single point] | – |
| CN(C)c1cccc(Oc2nc3c(c(=O)n(C)c(=O)n3C)n2C)c1 | inconclusive: -79.6% | – | – |
| CC1(c2ccccc2)CC(C)(C)N(C(=O)c2cc([N+](=O)[O-])cc([N+](=O)[O-])c2)c2ccccc21 (configuration not stated) | inconclusive: -20.6% | – | – |
| O=C(COC(=O)c1cc(NS(=O)(=O)c2cccs2)ccc1O)Nc1cc(Cl)ccc1Cl | inconclusive: -14.6% | – | – |
| Cc1ccc(OCCNC(=O)CNC(=O)c2ccccc2Cl)cc1 | inconclusive: 3.9% | – | – |
| Cc1cc(C)n(-c2ccc(C(=O)Nc3sccc3C(N)=O)cc2)n1 | – | inconclusive: 3.66 µM [falling, full curve, poor fit] | – |
| COc1ccc(NC(=O)CN2CCCC2c2cccs2)cc1S(=O)(=O)N1CCCCC1 (configuration not stated) | inconclusive: 9.45% | – | – |
| CC12CCC(=O)N1C(C(=O)NCc1ccccc1F)CS2 (configuration not stated) | inconclusive: 10.4% | – | – |
| CCOc1ccc(S(=O)(=O)N2CCC(C(=O)OCc3cccc(OC)c3OC)CC2)cc1 | inconclusive: 6.85% | – | – |
| CC(=O)Nc1ccc2[nH]c(C)cc(=O)c2c1 | inconclusive: -41.7% | – | – |
| CC(C)c1ccc(NC(=S)NNc2ccc(Cl)c(C(=O)O)c2)cc1 | inconclusive: 8.31% | – | – |
| CC(C)(C)C1CCC(OC(=O)CCC(=O)Nc2ccccc2)CC1 (configuration not stated) | inconclusive: -32.6% | – | – |
| O=C(NCc1cccs1)C1CC(O)CN1C(=O)Nc1ccccc1 (configuration not stated) | – | inconclusive: 2.31 µM [activator, partial curve] | – |
| CC(=O)Nc1nc(-c2cc([N+](=O)[O-])cs2)cs1 | – | inconclusive: 0.103 µM [activator, full curve, poor fit] | – |
| CCc1ccc(CN2CCC(n3nccc3NC(=O)c3ccccc3Cl)CC2)cc1 | inconclusive: 16.8% | – | – |
| NC(=O)CC(NC(=O)c1ccccc1)c1ccc(NCCc2ccc(Cl)cc2)c([N+](=O)[O-])c1 (configuration not stated) | – | inconclusive: 4.61 µM [activator, single point] | – |
| c1ccc(CCNc2nc3ccccc3n3nnnc23)cc1 | – | – | inactive [at 46.1 µM] |
| Oc1ccc(-c2cnc(-c3ccc(O)cc3)nc2)cc1 | – | inconclusive: 0.291 µM [activator, partial curve, poor fit] | – |
| CN(CC1COc2ccccc2O1)C(=O)c1cc(COc2c(F)cccc2F)on1 (configuration not stated) | – | inconclusive: 16.4 µM [falling, single point] | – |

Random excerpt: 2 entries already listed.

| Structure (SMILES) | lipid storage change, negative = inhibition | Potency | outcome |
| --- | --- | --- | --- |
| O=C(NCc1cccs1)C1CC(O)CN1C(=O)Nc1ccccc1 (configuration not stated) | – | inconclusive: 2.31 µM [activator, partial curve] | – |
| CCOc1ccc(S(=O)(=O)N2CCC(C(=O)OCc3cccc(OC)c3OC)CC2)cc1 | inconclusive: 6.85% | – | – |

Next entries follow:

| Structure (SMILES) | lipid storage change, negative = inhibition | Potency | outcome |
| --- | --- | --- | --- |
| Cc1cccc(OCCC(=O)NNC(=O)c2ccoc2C)c1 | inactive: 5.46% | – | – |
| O=C(Nc1cccc(-c2cn3cccnc3n2)c1)Nc1ccccc1F | inconclusive: 36% | – | – |
| FC(F)(F)c1cc(-c2ccc(Cl)cc2)nc(NCc2cccnc2)n1 | – | inconclusive: 20.6 µM [rising, single point] | – |
| Cc1ccc2c(Cl)cc(Cl)c(OCC(=O)NC(=O)NCc3ccco3)c2n1 | inconclusive: 144% | – | – |
| CCCN1CCC(N(C)CCc2ccc(OC)c(OC)c2)CC1 | inconclusive: -51.3% | – | – |
| CC(C(=O)Nc1ccc(S(=O)(=O)N2CCOCC2)cc1)N1CCN(c2ccccn2)CC1 (configuration not stated) | inconclusive: -9.93% | – | – |
| O=C(NCCN1CCC(Cc2ccccc2)CC1)C1CCCN(S(=O)(=O)c2cnc[nH]2)C1 (configuration not stated) | inconclusive: -21.7% | – | – |
| CCc1ccc2[nH]cc(C(=O)N3CCCCCC3)c(=O)c2c1 | – | inconclusive: 4.11 µM [activator, single point] | – |
| CCN(Cc1nc2cc(Cl)ccc2c(=O)[nH]1)C(=O)c1cccc(NC(=O)c2cccs2)c1 | inconclusive: 22% | – | – |
| COc1ccccc1NC(=O)C1=C(C)NC(=O)NC1c1ccc(C)s1 (configuration not stated) | inconclusive: 13.2% | – | – |
| CN(CC(=O)Nc1ccc(Cl)c(C(F)(F)F)c1)C(=O)c1ccc(OCC2CCCO2)cc1 (configuration not stated) | inconclusive: -2.71% | – | – |
| CCC(=O)N1CCc2cc(S(=O)(=O)NCCC(=O)Nc3ccccc3C)ccc21 | inconclusive: -4.5% | – | – |
| COc1cc(/C=N/OCC(=O)Nc2cc(C)on2)ccc1OCc1ccccc1 | – | inconclusive: 20.6 µM [activator, partial curve] | – |
| Cc1ccc(NC(=S)N/N=C/c2ccc([N+](=O)[O-])s2)cc1 | – | inconclusive: 29.1 µM [falling, single point] | – |
| CCOC(=O)c1cc(C)n(-n2cnnc2)c1C | – | active: 10.3 µM | – |
| CCn1cc(C(=O)NCCCOC)c(=O)c2cc(S(=O)(=O)N(C)C3CCCCC3)ccc21 | inconclusive: -21.1% | – | – |
| COc1cccc(NC(=O)CCNS(=O)(=O)c2cccc3nsnc23)c1 | inconclusive: -31.2% | – | – |
| Cc1ccc(S(=O)(=O)NC(C)(C)CSc2nnc(Nc3ccccc3)s2)cc1 | inconclusive: -8.58% | – | – |
| CC1CCC(NC(=O)c2cc3c(s2)CS(=O)(=O)C3)CC1 (configuration not stated) | – | inconclusive: 29.1 µM [falling, single point] | – |
| O=C(NC12CC3CC(CC(C3)C1)C2)C1CC(=O)N(c2ccc(Br)cc2)C1 (configuration not stated) | – | inconclusive: 0.164 µM [falling, full curve, poor fit] | – |
| O=C(c1ccc(F)cc1)N1CCCC(C(=O)N2CCc3ccccc3C2)C1 (configuration not stated) | inconclusive: 11.1% | – | – |
| CC(C(=O)NCCc1nc2ccccc2[nH]1)n1cc([N+](=O)[O-])cn1 (configuration not stated) | inconclusive: -15.7% | – | – |
| c1cc2c(cc1C1CCCCC1)c1c3n2CCN=C3CCC1 | – | inconclusive: 29.1 µM [cytotoxic, single point] | – |
| O=C(O)CCCC(=O)N1CCN(c2cccc(Cl)c2)CC1 | inconclusive: 3.92% | – | – |
| O=C1CCC(=O)N1CCOP1(=O)COc2ccccc2OC1 | – | inconclusive: 0.92 µM [falling, full curve] | – |
| CC(C)NCC(=O)Nc1c2c(nc3ccccc13)CCC2 | inconclusive: -5.17% | – | – |

Looked up above:
CN(CC(=O)Nc1ccc(Cl)c(C(F)(F)F)c1)C(=O)c1ccc(OCC2CCCO2)cc1 (configuration not stated) – lipid storage change, negative = inhibition: inconclusive: -2.71%
O=C(c1ccc(F)cc1)N1CCCC(C(=O)N2CCc3ccccc3C2)C1 (configuration not stated) – lipid storage change, negative = inhibition: inconclusive: 11.1%

(continued)

| Structure (SMILES) | lipid storage change, negative = inhibition | Potency | outcome |
| --- | --- | --- | --- |
| Cc1cc(C)n(CC(=O)N/N=C/c2cccc([N+](=O)[O-])c2)n1 | inconclusive: 20.3% | – | – |
| C/C(N)=C(/C#N)C(=O)COC(=O)c1ccncc1 | inconclusive: -101% | – | – |
| Cc1nc2cc(S(=O)(=O)N3CCC(C(=O)O)CC3)ccc2n1C1CCCC1 | inconclusive: 1.55% | – | – |
| Cc1ccc(C(C)NC(=O)Cc2cccs2)c(C)c1 (configuration not stated) | – | inconclusive: 20.6 µM [activator, single point] | – |
| CCOC(=O)c1c(NC(=O)Cc2cccs2)sc(C(=O)NC2CCCC2)c1C | inconclusive: 9.65% | – | – |
| NC(=O)c1ccc[n+](CC(=O)c2ccc(Br)cc2)c1 | inconclusive: -44.2% | – | – |
| CCOC(=O)CC(=O)CSc1ncnc2c1nnn2-c1ccccc1 | – | inconclusive: 29.1 µM [activator, single point] | – |
| COc1ccccc1-c1c(C)nn2c(N3CCN(c4ccccc4OC)CC3)cc(C)nc12 | inconclusive: 5.77% | – | – |
| COc1ccc(C(=O)Nc2cc(C)on2)cc1 | – | inconclusive: 0.731 µM [activator, full curve] | – |
| CCOC(=O)COc1cccc2c(=O)n(CC(=O)N3CCCCC3)ccc12 | inconclusive: 17.9% | – | – |
| Cc1c(NS(=O)(=O)c2ccc(C(=O)NCc3ccc(F)cc3)cc2)c(=O)n(-c2ccccc2)n1C | – | inconclusive: 0.13 µM [falling, full curve, poor fit] | – |
| CCOc1cc(NC(=O)c2ccco2)c(OCC)cc1NC(=O)COc1ccccc1 | inconclusive: 17.2% | – | – |
| COCCCNS(=O)(=O)c1cc2c3c(c1)C(C)C(=O)N3CCC2 (configuration not stated) | inconclusive: -24.3% | – | – |
| CCC(=O)N1CCN(c2ccc(Cl)cc2NC(=O)Cc2ccc(Cl)cc2)CC1 | inconclusive: 25.9% | – | – |
| O=C(O)c1ccc(NS(=O)(=O)c2ccc(Cl)c(C(=O)Nc3ccccc3[N+](=O)[O-])c2)cc1 | inconclusive: -20.4% | – | – |
| COc1ccc(-c2cc(C(F)(F)F)n3ncc(C(=O)O)c3n2)cc1OC | inconclusive: -7.41% | – | – |
| CCN(CC)c1ccc(-c2n[nH]c(=S)n2-c2ccccc2)cc1 | inconclusive: -26.1% [at 9.22 µM] | – | – |
| Cc1ccc(C(=O)NCC(=O)O)s1 | inconclusive: -24.6% [at 9.22 µM] | – | – |
| CC(=O)Nc1cc(C(=O)N2CCCC2)ccc1Sc1ccc(Cl)cc1 | inconclusive: 11.6% | – | – |
| c1cncc(-c2nc3c(ccc4ccccc43)[nH]2)c1 | inconclusive: 1.21% | – | – |
| Cc1ccc(N(CC(=O)NC(C)(C)C)C(=O)CCC(=O)Nc2nccs2)cc1C | – | inconclusive: 23.1 µM [falling, single point] | – |
| O=C(CSCc1nc2ccccc2[nH]1)Nc1ccc2ccccc2c1 | – | inconclusive: 16.4 µM [falling, partial curve, poor fit] | – |
| Cc1cccc(OCC(=O)Nc2nnc(S(=O)(=O)N3CCC(C)CC3)s2)c1 | inconclusive: 18.2% | – | – |
| N#CC(c1ccccc1F)(c1ncc(C(F)(F)F)cc1Cl)N1CCOCC1 (configuration not stated) | inconclusive: 10.5% | – | – |
| O=C(CCCCC(=O)Nc1ccccc1)Nc1ccccc1 | – | inconclusive: 0.103 µM [activator, full curve, poor fit] | – |
